# According to the supplement of paper PMC4635364:
# Structures can show the parent of a compound that is named as a salt. This is one part of the list. Repeats in this data set agree poorly, so a single value says little.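 Cells: ReNCell VM human fetal ventral-midbrain neural progenitors, differentiated mitogen-free. Blinded raters compared doublecortin-stained (early neurons) or tyrosine hydroxylase-stained (dopaminergic neurons) images with untreated wells, where 0 means no change. After repeats and both raters were averaged, compounds scoring 2 or above became hits for retesting.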
# Legend:
# ReNCell VM [1] = assay: neuronal differentiation score (DCX+ cell fraction vs untreated, manual image score) (score (-3 to 3)); higher = more neuronal differentiation; settings: 2 uM, 2 weeks
# ReNCell VM [2] = assay: dopaminergic neuron differentiation score (TH+ cell fraction vs untreated, manual image score) (score (0 to 3)); higher = more TH+ dopaminergic neuron differentiation; settings: 2 uM, 4 weeks, BDNF 10 ng/ml + GDNF 10 ng/ml
compound,measurement,setting,value
S=C=Nc1cccc(C2(N3CCCCC3)CCCCC2)c1 [Metaphit],neuronal differentiation score,ReNCell VM [1]; library: Tocriscreen,inactive: 0
same,dopaminergic neuron differentiation score,ReNCell VM [2]; library: Tocriscreen,inactive: 0
COc1cc([C@@H]2c3cc4c(c(O)c3C[C@H]3COC(=O)[C@@H]32)OCO4)cc(OC)c1OC [beta-PELTATIN],neuronal differentiation score,ReNCell VM [1]; library: Spectrum,inactive: 0
same,dopaminergic neuron differentiation score,ReNCell VM [2]; library: Spectrum,inactive: 0
CC[C@@H](C)C(=O)O[C@H]1[C@H](O)[C@H]2[C@@H](CN3C[C@@H](C)CC[C@H]3[C@@]2(C)O)[C@@H]2C[C@]34O[C@]5(O)[C@@H](OC(=O)[C@@](C)(O)CC)CC[C@@]3(C)[C@@H]5[C@@H](OC(C)=O)[C@@H](OC(C)=O)[C@H]4[C@@]21O [Protoveratrine A],neuronal differentiation score,ReNCell VM [1]; library: Phytochemical,inactive: 0
same,dopaminergic neuron differentiation score,ReNCell VM [2]; library: Phytochemical,inactive: 0
NCC(O)c1ccc(O)cc1 (stereo not drawn),neuronal differentiation score,ReNCell VM [1]; library: Spectrum,inactive: 0
same,dopaminergic neuron differentiation score,ReNCell VM [2]; library: Spectrum,inactive: 0
N#CC(C#N)=Cc1ccc([N+](=O)[O-])c(O)c1 [Tyrphostin AG 126],neuronal differentiation score,ReNCell VM [1]; library: LOPAC,inactive: 0
same,dopaminergic neuron differentiation score,ReNCell VM [2]; library: LOPAC,inactive: 0
CCC(=O)O[C@@](Cc1ccccc1)(c1ccccc1)[C@@H](C)CN(C)C [Levopropoxyphene napsylate],neuronal differentiation score,ReNCell VM [1]; library: Prestwick,inactive: 0
same,dopaminergic neuron differentiation score,ReNCell VM [2]; library: Prestwick,inactive: 0
C[C@]12CCC(=O)C=C1CCc1ccc(O)cc12,neuronal differentiation score,ReNCell VM [1]; library: Spectrum,inactive: 0
same,dopaminergic neuron differentiation score,ReNCell VM [2]; library: Spectrum,inactive: 0
CC(=O)OC[C@]12C[C@H](OC(=O)CC(C)C)C(C)=C[C@H]1O[C@@H]1[C@H](O)[C@@H](OC(C)=O)[C@@]2(C)[C@]12CO2 [t2 toxin],neuronal differentiation score,ReNCell VM [1]; library: Natural,inactive: 0
same,dopaminergic neuron differentiation score,ReNCell VM [2]; library: Natural,inactive: 0
COC(=O)/C=C/C(=O)N[C@@H]1CC[C@@]2(O)[C@H]3Cc4ccc(O)c5c4[C@@]2(CCN3CC2CC2)[C@H]1O5 [?-Funaltrexamine hydrochloride],neuronal differentiation score,ReNCell VM [1]; library: Tocriscreen,inactive: -1
same,dopaminergic neuron differentiation score,ReNCell VM [2]; library: Tocriscreen,inactive: 0
CN1[C@@H]2C[C@@H](OC(=O)[C@H](CO)c3ccccc3)C[C@H]1[C@@H]1O[C@@H]12,neuronal differentiation score,ReNCell VM [1]; library: Spectrum,inactive: 0
same,dopaminergic neuron differentiation score,ReNCell VM [2]; library: Spectrum,inactive: 0
C=C(C)[C@H]1Cc2c(ccc3c2O[C@@H]2COc4cc(OC)c(OC)cc4[C@@H]2C3=O)O1,neuronal differentiation score,ReNCell VM [1]; library: Spectrum,inactive: 0
same,dopaminergic neuron differentiation score,ReNCell VM [2]; library: Spectrum,inactive: 0
"Ic1ccccc1CNC1C2CCN(CC2)C1C(c1ccccc1)c1ccccc1 [L-703,606 oxalate]",neuronal differentiation score,ReNCell VM [1]; library: LOPAC,inactive: 0
same,dopaminergic neuron differentiation score,ReNCell VM [2]; library: LOPAC,inactive: 0
Cc1cc(O)ccc1Cl,neuronal differentiation score,ReNCell VM [1]; library: Spectrum,inactive: 0
same,dopaminergic neuron differentiation score,ReNCell VM [2]; library: Spectrum,inactive: 0
CN1[C@@H]2CC[C@H]1C[C@@H](OC(=O)[C@H](CO)c1ccccc1)C2 [L-Hyoscyamine],neuronal differentiation score,ReNCell VM [1]; library: LOPAC,inactive: 0
same,dopaminergic neuron differentiation score,ReNCell VM [2]; library: LOPAC,inactive: 0
"CN(N=O)c1ccc(O)c(O)c1 [Me-3,4-dephostatin]",neuronal differentiation score,ReNCell VM [1]; library: LOPAC,inactive: 0
same,dopaminergic neuron differentiation score,ReNCell VM [2]; library: LOPAC,inactive: 0
CC(=O)O[C@H]1CC[C@@]2(C)C(=CC[C@@H]3[C@@H]2CC[C@]2(C)C(=O)CC[C@@H]32)C1,neuronal differentiation score,ReNCell VM [1]; library: Spectrum,inactive: 0
same,dopaminergic neuron differentiation score,ReNCell VM [2]; library: Spectrum,inactive: 0
CNC(C)(C)Cc1ccccc1,neuronal differentiation score,ReNCell VM [1]; library: Spectrum,inactive: 0
same,dopaminergic neuron differentiation score,ReNCell VM [2]; library: Spectrum,inactive: 0
N#C[C@H](O[C@@H]1O[C@H](CO[C@@H]2O[C@H](CO)[C@@H](O)[C@H](O)[C@H]2O)[C@@H](O)[C@H](O)[C@H]1O)c1ccccc1,neuronal differentiation score,ReNCell VM [1]; library: Spectrum,inactive: 0
same,dopaminergic neuron differentiation score,ReNCell VM [2]; library: Spectrum,inactive: 0
C[CH2][Hg][S]c1ccccc1C(=O)[O-].[Na+] [Thimerosal],neuronal differentiation score,ReNCell VM [1]; library: Prestwick,inactive: 0
same,dopaminergic neuron differentiation score,ReNCell VM [2]; library: Prestwick,inactive: 0
"CN(C(=O)Cc1ccc(Cl)c(Cl)c1)[C@H](CN1CCCC1)c1ccccc1 [ICI-199,441 hydrochloride]",neuronal differentiation score,ReNCell VM [1]; library: Tocriscreen,inactive: 0
same,dopaminergic neuron differentiation score,ReNCell VM [2]; library: Tocriscreen,inactive: 0
"Cc1cc(C)cc(C(=O)OC2C[C@H]3CC[C@@H](C2)N3C)c1 (stereo partly drawn) [Tropanyl-3,5-dimethylbenzoate]",neuronal differentiation score,ReNCell VM [1]; library: Tocriscreen,inactive: 0
same,dopaminergic neuron differentiation score,ReNCell VM [2]; library: Tocriscreen,inactive: 0
C[N+]1(C)[C@@H]2CC[C@H]1C[C@@H](OC(=O)C(CO)c1ccccc1)C2 (stereo partly drawn) [Atropine methyl nitrate],neuronal differentiation score,ReNCell VM [1]; library: LOPAC,inactive: 0
same,dopaminergic neuron differentiation score,ReNCell VM [2]; library: LOPAC,inactive: 0
COc1ccc2c(c[n+](C)c3c4cc5c(cc4ccc23)OCO5)c1OC [Chelerythrine chloride],neuronal differentiation score,ReNCell VM [1]; library: LOPAC,inactive: 0
same,dopaminergic neuron differentiation score,ReNCell VM [2]; library: LOPAC,inactive: 0
O=C1Nc2cc(Cl)c(Cl)cc2N2CCNCC12 (stereo not drawn),neuronal differentiation score,ReNCell VM [1]; library: Tocriscreen,inactive: 0
same,dopaminergic neuron differentiation score,ReNCell VM [2]; library: Tocriscreen,inactive: 0
Clc1ccc(C(OCCN2CCCCC2)c2ccccc2)cc1 (stereo not drawn),neuronal differentiation score,ReNCell VM [1]; library: Spectrum,inactive: 0
same,dopaminergic neuron differentiation score,ReNCell VM [2]; library: Spectrum,inactive: 0
CCCCC1(C2CCCC2)Cc2cc(OCCCC(=O)O)c(Cl)c(Cl)c2C1=O (stereo not drawn),neuronal differentiation score,ReNCell VM [1]; library: Tocriscreen,inactive: 0
same,dopaminergic neuron differentiation score,ReNCell VM [2]; library: Tocriscreen,inactive: 0
CCCN1CCC[C@@H](c2cccc(C#N)c2)C1 [S(-)-DS 121 hydrochloride],neuronal differentiation score,ReNCell VM [1]; library: LOPAC,inactive: 0
same,dopaminergic neuron differentiation score,ReNCell VM [2]; library: LOPAC,inactive: 0
CC1(C(=O)O)C2CCC(O2)C1(C)C(=O)O (stereo not drawn) [Cantharidic Acid],neuronal differentiation score,ReNCell VM [1]; library: LOPAC,inactive: 0
same,dopaminergic neuron differentiation score,ReNCell VM [2]; library: LOPAC,inactive: 0
O=c1[nH]oc2c1CCNC2 [THIP Hydrochloride],neuronal differentiation score,ReNCell VM [1]; library: Prestwick,inactive: 0
same,dopaminergic neuron differentiation score,ReNCell VM [2]; library: Prestwick,inactive: 0

# Some of the entries so far, as tab-separated lines.
compound	measurement	setting	value
N#CC(C#N)=Cc1ccc([N+](=O)[O-])c(O)c1 [Tyrphostin AG 126]	neuronal differentiation score	ReNCell VM [1]; library: LOPAC	inactive: 0
same	dopaminergic neuron differentiation score	ReNCell VM [2]; library: LOPAC	inactive: 0
